# This is one part of the list.
# Assay: enhancers of NFkB p65 translocation in HUVEC – imaging, IL-1B stimulus, high-content imaging, primary screen (AID 819)
# Conditions: HUVEC IL-1B NFkB p65 nuclear translocation imaging; cells passing quality filter; at 2 µM; stronger effect = lower value
row,SMILES,cell count
1,Cc1nn(-c2ccccc2)c2c1P(=O)(N1CCOCC1)N(C)C(c1ccccc1)=N2 (stereo unspecified),148
2,COc1ccccc1OP(C)(=O)Nc1c(C)cccc1C (stereo unspecified),168
3,O=P1(Nc2ncccn2)COc2ccccc2OC1,115
4,Cc1ccc(OCC(=O)OC2CN3CCC2CC3)cc1 (stereo unspecified),150
5,O=P1(Nc2ccc(Br)cn2)COc2ccccc2OC1,100
6,O=P1(Nc2ccccn2)COc2ccccc2OC1,133
7,Clc1n[nH]nc1-c1nn[nH][15n]1,85
8,Cc1nc2ccc3ccccc3c2s1.O=[N+]([O-])c1cc([N+](=O)[O-])c(O)c([N+](=O)[O-])c1,137
9,CC1(CBr)Cn2c(nc3ccccc3c2=O)S1 (stereo unspecified),80
10,Cc1cccc(OCC(=O)OC2CN3CCC2CC3)c1 (stereo unspecified),64
11,Cc1cc(C)cc(OP(C)(=O)Nc2ccccn2)c1 (stereo unspecified),116
12,Cc1ccc(C)c(NP(C)(=O)Oc2ccccc2)c1 (stereo unspecified),120
13,CCOP1(=S)c2c(C)nn(CCC#N)c2N=C(c2ccccc2F)N1C (stereo unspecified),140
14,CCOP1(=S)c2c(C)nn(CCC#N)c2N=C(c2ccc(F)cc2)N1C (stereo unspecified),181
15,O=[N+]([O-])c1ccc2c(c1)nnn2O,168
16,ClCCSc1nnc(-c2cccnc2)o1,158
17,COc1ccc(OP(C)(=O)Nc2cccc(F)c2)cc1 (stereo unspecified),169
18,CCN(CC)C(=S)SC(NC=O)C(Cl)(Cl)Cl (stereo unspecified),210
19,O=C(OC1CN2CCC1CC2)C12CC3CC(CC(C3)C1)C2 (stereo unspecified),101
20,COP1(=S)c2c(C)nn(CCC#N)c2N=C(c2ccc(F)cc2)N1C (stereo unspecified),168
21,CP(=O)(NC(=O)Nc1ccccc1)Oc1ccccc1 (stereo unspecified),159

row,SMILES,cell count
1,O=C(COc1ccccc1)OC1CN2CCC1CC2 (stereo unspecified),171
2,CCC(C)N(CC(C)C)C(=S)SC(NC(C)=O)C(Cl)(Cl)Cl (stereo unspecified),131
3,CP(=O)(Nc1ccccn1)Oc1ccc(Cl)cc1 (stereo unspecified),194
4,CP(=S)(Nn1cnnc1)Oc1ccccc1 (stereo unspecified),158
5,CP(=O)(OC12CC3CC(CC(C3)C1)C2)OC12CC3CC(CC(C3)C1)C2,161
6,CCN(CC)CC(O)COC(=O)C(O)(c1ccccc1)C1CCCCC1 (stereo unspecified),121
7,CCc1nc2c(n1)c1c(non1O)c1c2no[n+]1[O-],86
8,CP(=O)(Oc1ccccc1)N1CCOC1=O (stereo unspecified),185
9,CC(=O)N1C2C3N(C(C)=O)C1C1N(C(C)=O)C(C(N1C(C)=O)N3C(C)=O)N2C(C)=O,175
10,O=[N+]([O-])c1cccc2n[nH]nc12,114
11,COc1ccccc1OP(C)(=O)Nc1c(C)n(C)n(-c2ccccc2)c1=O (stereo unspecified),137
12,CP(=O)(Nc1ccc(Cl)cc1)Oc1ccc(F)cc1 (stereo unspecified),70
13,CC(C)(C)c1ccc(OP(C)(=O)O)cc1,191
14,CC1CCN(C(=O)Oc2c(Cl)cc(Cl)c3cccnc23)CC1,148
15,CN1CCCC(OC(=O)C(c2ccccc2)c2ccccc2)C1 (stereo unspecified),202
16,CN(C)CCOC(=O)C(O)(c1ccccc1)C1CCCC1 (stereo unspecified),199
17,COc1ccc(OP(C)(=O)Nc2ccccn2)cc1 (stereo unspecified),194
18,Cc1c2non([O-])c-2c(C)[n+](=O)[n+]1[O-],217
19,Oc1ccccc1CNc1ccccn1,161
20,Cc1c(NP(C)(=O)Oc2ccc(C(C)C)cc2)c(=O)n(-c2ccccc2)n1C (stereo unspecified),150
21,CC(C)CC(=O)NC(Sc1ccc(Cl)cc1)C(Cl)(Cl)Cl (stereo unspecified),102

row,SMILES,cell count
1,CCc1ccc(OP(C)(=O)O)cc1,66
2,COc1ccccc1OP(C)(=O)Nc1ccc(C)cc1C (stereo unspecified),121
3,CP(=O)(Nc1ccccn1)Oc1ccccc1 (stereo unspecified),179
4,COc1ccccc1OP(C)(=O)Nc1ccc(C)c(C)c1 (stereo unspecified),184
5,CCOP(=O)(Nc1ccccc1)OCC,165
6,Cc1nc2ccc3ccccc3c2o1.O=[N+]([O-])c1cc([N+](=O)[O-])c(O)c([N+](=O)[O-])c1,184
7,CCOC(=O)NC(Sc1ccccc1)C(Cl)(Cl)Cl (stereo unspecified),124
8,CCC(=O)N1C2C3N(C(=O)CC)C1C1N(C(=O)CC)C(C(N1C(=O)CC)N3C(=O)CC)N2C(=O)CC,189
9,CCN(CC)CCCOC(=O)C(O)(c1ccccc1)C1CCCCC1 (stereo unspecified),94
10,COC(=O)c1cc2c(s1)N=C(c1ccccc1)N(C)P2(=O)N1CCOCC1 (stereo unspecified),86
11,CP(=O)(Nc1ccccc1)Oc1ccc(F)cc1 (stereo unspecified),49
12,O=P1(Nc2nc3ccc(Cl)cc3s2)COc2ccccc2O1 (stereo unspecified),88
13,CP(=O)(Nc1ccccc1F)Oc1ccccc1 (stereo unspecified),187
14,O=P(Nc1nccs1)(c1ccccc1)c1ccccc1,199
15,c1nnnn1CCn1cnnn1,196
16,CCOP(C)(=S)SCC(=O)NC(C)(CC)C(=O)O (stereo unspecified),155
17,CP(=O)(Nc1ccc2c(c1)OCCO2)Oc1ccccc1 (stereo unspecified),125
18,CN(C)CCOC(=O)C(O)(c1ccccc1)C1CCCCC1 (stereo unspecified),121
19,O=C(OC1CN2CCC1CC2)c1cccc(Cl)c1 (stereo unspecified),147

# Reference: PubChem BioAssay AID819 (Columbia University Molecular Screening Center, 2007)
